No constants are given. Whether binding was seen depends on the method and setting. Binding seen in cells or lysates may run through a third protein. A result given as binding can be weak or reduced; the word gives no strength.
Legend:
[1] = molecular target: Signal transducer and activator of transcription 3 (human (endogenous in HAVSMCs)) (UniProt P40763); test: co-IP; endogenous co-immunoprecipitation from HAVSMC lysates; antibody 3 hours, protein A/G magnetic beads 12 hours at 4 °C; some panels with 20 ng/mL PDGF-BB, or cells transfected with Flag-Septin4 plasmid or Septin4-siRNA
[2] = molecular target: SIRT1 (human (endogenous in HAVSMCs)) (UniProt Q96EB6); test: as above

Protein sequences, listed by entry. Tags and fused reporters are not part of them.
UniProt P40763: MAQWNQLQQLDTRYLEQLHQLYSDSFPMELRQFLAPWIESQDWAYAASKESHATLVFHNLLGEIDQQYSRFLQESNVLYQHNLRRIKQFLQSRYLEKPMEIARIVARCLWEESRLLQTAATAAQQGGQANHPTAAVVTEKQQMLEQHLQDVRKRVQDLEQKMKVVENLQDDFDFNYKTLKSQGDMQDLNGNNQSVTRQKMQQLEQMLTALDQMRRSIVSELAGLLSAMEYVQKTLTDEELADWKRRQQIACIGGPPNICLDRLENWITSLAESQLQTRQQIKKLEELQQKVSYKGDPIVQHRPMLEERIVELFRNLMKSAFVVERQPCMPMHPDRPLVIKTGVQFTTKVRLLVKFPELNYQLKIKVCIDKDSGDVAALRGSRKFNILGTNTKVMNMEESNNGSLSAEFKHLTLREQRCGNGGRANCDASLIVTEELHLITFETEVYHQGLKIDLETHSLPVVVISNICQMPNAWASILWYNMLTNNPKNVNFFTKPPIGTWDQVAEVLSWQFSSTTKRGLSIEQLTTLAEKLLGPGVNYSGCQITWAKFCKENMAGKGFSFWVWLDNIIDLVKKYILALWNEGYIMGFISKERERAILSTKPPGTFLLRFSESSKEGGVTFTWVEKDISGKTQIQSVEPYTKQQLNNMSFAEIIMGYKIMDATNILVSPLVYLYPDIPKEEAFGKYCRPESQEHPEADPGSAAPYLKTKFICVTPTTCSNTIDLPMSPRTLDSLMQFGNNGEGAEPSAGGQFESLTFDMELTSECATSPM
UniProt Q96EB6: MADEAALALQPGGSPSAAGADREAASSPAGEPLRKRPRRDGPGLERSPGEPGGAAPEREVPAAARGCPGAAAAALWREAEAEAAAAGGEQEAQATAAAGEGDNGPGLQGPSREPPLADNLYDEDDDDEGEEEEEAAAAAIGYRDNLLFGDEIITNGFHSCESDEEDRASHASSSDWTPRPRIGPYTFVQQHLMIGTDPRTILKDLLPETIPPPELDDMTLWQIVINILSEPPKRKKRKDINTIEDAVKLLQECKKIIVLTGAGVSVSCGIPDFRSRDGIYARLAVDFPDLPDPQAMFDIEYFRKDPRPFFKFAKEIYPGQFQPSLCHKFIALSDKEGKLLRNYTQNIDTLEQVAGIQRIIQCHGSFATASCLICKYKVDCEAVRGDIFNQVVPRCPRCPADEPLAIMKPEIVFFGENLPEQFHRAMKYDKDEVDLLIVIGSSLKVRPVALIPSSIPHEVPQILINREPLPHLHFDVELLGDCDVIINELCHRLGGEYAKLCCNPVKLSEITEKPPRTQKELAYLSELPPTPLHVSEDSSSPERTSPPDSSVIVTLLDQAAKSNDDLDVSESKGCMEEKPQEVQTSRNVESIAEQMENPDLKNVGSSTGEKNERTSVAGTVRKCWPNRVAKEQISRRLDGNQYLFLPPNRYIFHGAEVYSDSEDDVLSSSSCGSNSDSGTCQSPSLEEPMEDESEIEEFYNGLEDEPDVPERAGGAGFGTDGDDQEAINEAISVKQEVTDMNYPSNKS

binding [1]: binds | binding [2]: binds
Substance: Septin4 (from UniProt O43236-1)

Reference: paper PMC6990924
